In WO2019080889A1 (dated 2019):
These are yes or no findings as the source states them, for the method shown. Some binding calls cover weakened binding; strength is not graded here.

Sequences of proteins named here, by UniProt entry; tags and fusion partners are left off. Residues count along the entry.
UniProt P07333, residues 20-517: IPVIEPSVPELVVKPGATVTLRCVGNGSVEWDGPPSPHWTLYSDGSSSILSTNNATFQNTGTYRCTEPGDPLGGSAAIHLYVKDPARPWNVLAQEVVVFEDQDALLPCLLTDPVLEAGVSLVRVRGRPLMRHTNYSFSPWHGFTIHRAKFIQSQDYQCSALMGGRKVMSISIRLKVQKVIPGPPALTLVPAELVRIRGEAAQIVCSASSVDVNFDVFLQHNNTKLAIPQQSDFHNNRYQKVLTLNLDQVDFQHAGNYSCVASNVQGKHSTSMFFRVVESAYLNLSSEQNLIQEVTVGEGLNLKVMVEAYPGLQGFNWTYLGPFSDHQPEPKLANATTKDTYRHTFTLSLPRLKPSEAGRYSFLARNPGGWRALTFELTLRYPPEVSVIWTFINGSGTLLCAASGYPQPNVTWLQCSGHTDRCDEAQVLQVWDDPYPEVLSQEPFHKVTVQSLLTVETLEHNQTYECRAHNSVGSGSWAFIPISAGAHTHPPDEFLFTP

These binders were tested against Human CSF-1R ECD-His (human) (UniProt P07333) (assay: SPR (Biacore), antibody captured by anti-human IgG, h-CSF-1R-His as analyte).

Binder | binding
humanized anti-CSF-1R antibody huC11 (antibody, human IgG1, kappa, V domains shown, Full-length chains; also called huC11 (VH-b heavy chain and VL-b light chain)) VH: EVQLVQSGAEVKKPGASVKVSCKASGYTFSNYYMNWVRQAPGQGLEWMGEMNPNTGDSSYNQKFKGRVTLTVDKSTSTAYMELSSLRSEDTAVYYCARRSPWWFFDVWGQGTMVTVSS VL: DIVMTQSPDSLAVSLGERATINCKSSQSLLSSGNQKTSLTWYQQKPGQPPKLLIYWASTRESGVPDRFSGSGSGTDFTLTISSLQAEDVAVYYCQNDYTYPFTFGQGTKLEIKR | binds
humanized anti-CSF-1R antibody huC19 (antibody, human IgG1, kappa, V domains shown, Full-length chains; also called huC19 (VH-c heavy chain and VL-a light chain)) VH: QVQLVQSGAEVKKPGASVKVSCKASAITFTDYYMNWVKQAPGQGLEWIGDIYPNTGGTTYNQKFKGRVTLTVDTSISTAYMELSRLRSEDTAVYYCAREKITMEYYYAMDYWGQGTLVTVSS VL: DIQLTQSPSSLSASVGDRVTITCRASESVSSHDIHLIHWYQQKPGKAPKLLIYAASSLESGVPSRFSGSGSGTDFTLTISSLQPEDFATYFCQQSIEDPPTFGGGTKVEIKR | binds

What follows are binders tested against cynomolgus monkey CSF-1R-His (cynomolgus monkey) (assay: ELISA on cynomolgus CSF-1R-His).

binding | Binder
binds | anti-CSF-1R chimeric antibody C16C (antibody, V domains shown) VH: QVQLQQSGPELVKPGASVKLSCKASGYTFTTYDINWVKQRPGQGLEWIGWVYPRDGSTKYNEKFKGKATLTVDTSSRTVYMEFHSLTSEDSAVYFCARSGLTGSPFAYWGQGTLVTVSA VL: KIVLTQSPASLAVSLRQRATISCRASESFDSYGNTFMHWFQQKSGQPPKLLIYRASNLESGVPARFSGSGSRTDFTLTIDPVEADDAATYYCQQNNEYPLTFGSGTKLELK
binds | anti-CSF-1R chimeric antibody C6C (antibody, V domains shown) VH: EVRLQQSGPELVKPGASVKISCKASGYTFTGYYMHWVKQSPEKSLEWIGEINPNTGSCTYNQKFTGKATLTVDKSSSTAYMQLTSLTSEDSAVYYCARLNYYWYFDVWGAGTTVTVSS VL: DIVMTQSPSSLAMSVGQKVTMSCKSSQTLLNSNDQKNYLAWYQQKPGQSPKLLVYFASTRDSGVPDRFTGSGSGTDFTLTITSVQTEDLAVYYCQQDYSTPFTFGSGTKLEIQ
binds | anti-CSF-1R chimeric antibody C8C (antibody, V domains shown) VH: QVQLQQSGTELVQPGASVKMTCKTSGYTFTNYWIAWVKQRPGQGLEWIGEMYPGGGGDNHHEKFKNKASLTVDMSSSTAYMQLSRLTFEDSAVYYCARRDYGNPCFDYWGQGTSLTVSS VL: DIVLTQSPASLIVSLGQRATISCRASQGVTTSSHSYMHWYQQKLGQSPKLLIKYASNLESGVPARFSGSGSGTDFTLNIHPVEEEDTATYYCQHSWEIPYTFGGGTKLEIK
binds | anti-CSF-1R chimeric antibody C18C (antibody, V domains shown) VH: EVQLQQSGPELVKPGASVKISCKASAITFTDYYMNWVKQSPGKGLEWIGDINPNNGGTTYNQKFKGKATLTVDKSSTTAYMELRSLTSEDSAVYYCAREKISMEYYYAMDYWGQGTSVTVSS VL: DIVLTQSPASLAVSLGQRATISCRASESVSSHDIHLMHWYQQKPGQSPKLLIYAASNLESGVPARFSGSGSATDFTLNIHPVEEEDAATYFCQQSIEDPPTFGGGTKLEIK
binds | anti-CSF-1R chimeric antibody C23C (antibody, V domains shown) VH: EVQLQQSGPELVKPGTSVKISCQASGYTFTVYYMNWVKQSHGKSLEWIGDIDPNTGDSTYNQKFRGKATLTVDKSSSTAYMELRSLTSEDSAVYYCARYDGYIDYWGQGTTLTVSS VL: DVVMTQTPLSLPVSLGDQASISCRSSQSIVHSNRHTYLEWYLQKPGQSLKLLIYGVSNRFSGVPDRFSGSGSGTDFTLKISRVEAEDMGIYYCFQGTHVPLTFGAGTKLELK

Binder | binding
anti-CSF-1R chimeric antibody C11C (antibody, V domains shown) VH: EVQLQQSGPELVKPGASVKISCKASGYTFSNYYMNWVNQRHGERLEWIGEMNPNNGDSSYNQKFKGKATLTVDKSSSTAYMELRSLTSEDSAVYYCARRSPWWFFDVWGPGTTVIVSS VL: DIVMTQSPSSLTVTAGEKVTMSCKSSQSLLNSGNQKNSLTWYQQKPGQPPKLLIYWASTRESGVPDRFTGSGSGTDFTLTISSVQTEDLAVYYCQNDYTYPFTFGTGTKLEIK | binds
anti-CSF-1R chimeric antibody C19C (antibody, V domains shown) VH: EVQLQQSGPELVKPGASVKISCTASAITFTDYYMNWVKQSPGKGLEWIGDIYPNNGGTTYNQKFKGKATLTVDKSSTTAYMELRSLTSEDSAVYYCAREKITMEYYYAMDYWGQGTSVTVSS VL: DIVLTQSPASLAVSLGQRATISCRASESVSSHDIHLIHWYQQKPGQSPKLLIYAASSLESGVPARFSGSGSATDFTLNIHPVEEEDAATYFCQQSIEDPPTFGGGTKLEIK | binds
